{"source": "PubChem BioAssay AID1259425 (University of Nebraska Medical Center, 2018)", "aim": "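Find knockdowns that reproduce the gene expression pattern seen when KSR1 is lost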 (primary screen)", "cells": "HCT116 human colon cancer cells", "reagents": "siRNA pool against human genes, 50 nM siRNA", "read-out": "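mRNA of six signature genes measured together by branched-DNA assay after 50 nM siRNA pool, blank removed, divided by geometric mean of two housekeeping genes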", "reading the numbers": "BNIP3L mRNA: higher = more BNIP3L transcript after knockdown", "note": "Shown is an unselected part of about 14,000 deposited reagents. Reagents against one gene are numbered here. Not all columns of the deposit are shown. Not stated in the record: the time to read-out."}
{"Gene": "AKT1", "reagent": 1, "BNIP3L mRNA, set 1": 0.0982}
{"Gene": "AKT1", "reagent": 2, "BNIP3L mRNA, set 1": 0.0697}
{"Gene": "PAGR1", "reagent": 1, "BNIP3L mRNA, set 1": 0.1}
{"Gene": "SEPTIN5", "reagent": 1, "BNIP3L mRNA, set 1": 0.117}
{"Gene": "NUAK1", "reagent": 1, "BNIP3L mRNA, set 1": 0.222}

Part of the list above, reformatted.
Gene | reagent | BNIP3L mRNA, set 1
PAGR1 | 1 | 0.1
SEPTIN5 | 1 | 0.117

More results follow:
{"Gene": "ERBB3", "reagent": 1, "BNIP3L mRNA, set 1": 0.216}
{"Gene": "NCBP1", "reagent": 1, "BNIP3L mRNA, set 1": 0.122}
{"Gene": "TMEM191A", "reagent": 1, "BNIP3L mRNA, set 1": 0.163}
{"Gene": "AIFM2", "reagent": 1, "BNIP3L mRNA, set 1": 0.26}
{"Gene": "PROC", "reagent": 1, "BNIP3L mRNA, set 1": 0.0773}
{"Gene": "LYN", "reagent": 1, "BNIP3L mRNA, set 1": 0.1}
{"Gene": "CCND3", "reagent": 1, "BNIP3L mRNA, set 1": 0.0786}
